Measured values: the supplement of paper PMC10331698
± gives the standard deviation of the averaged measurements. Most entries show no effect beyond the scatter of the controls.

Tests used:
Experiment in all cases: level (log10 ratio to DMSO vehicle control); higher = higher biomarker level / cell amount than vehicle control
[1] = compound: FC(F)(F)C(F)(F)C(F)(F)C(F)(F)C(F)(F)C(F)(F)C(F)(F)I [1-Iodopentadecafluoroheptane]; conditions: in DMSO
Protocol: (§1)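 BioMAP Diversity Plus panel of 12 human primary cell co-culture systems (3C, 4H, LPS, SAg, BT, BF4T, BE3C, CASM3C, HDF3CGF, KF3CT, MyoF, Mphg). Compounds were added 1 h before stimulation and left for 24 h (MyoF 48 h; BT 72 h for soluble read-outs or 6 d for IgG). Biomarkers were read by ELISA, cytotoxicity by SRB, PBMC viability and proliferation by Alamar Blue. Each well value was divided by the mean of 8 DMSO control wells on the same plate and log10 transformed; duplicate blinded samples were tested at 4 concentrations.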

[2] = compound: O=P(O)(O)CCC(F)(F)C(F)(F)C(F)(F)C(F)(F)C(F)(F)C(F)(F)C(F)(F)C(F)(F)F [((Perfluorooctyl)ethyl)phosphonic acid]; conditions: 2200 nM; in DMSO
Protocol: as §1

[3] = compound: O=C(O)C=CC(F)(C(F)(F)F)C(F)(F)F [3-(Perfluoroisopropyl)-2-propenoic acid]; conditions: in DMSO
Protocol: as §1

[4] = compound: O=C(O)C(F)(F)C(F)(F)C(F)(F)C(F)(F)C(F)(F)C(F)(F)C(F)(F)C(F)F [9-H-Perfluorononanoic acid]; conditions: 2200 nM; in DMSO
Protocol: as §1

[5] = compound: O=S(=O)(Cl)C(F)(F)C(F)(F)C(F)(F)C(F)(F)C(F)(F)C(F)(F)C(F)(F)C(F)(F)F [Perfluoro-1-octanesulfonyl chloride]; conditions: 2200 nM; in DMSO
Protocol: as §1

[6] = compound: O=C(O)C(F)(F)C(F)(F)C(F)(F)F [Perfluorobutanoic acid]; conditions: 2200 nM; in DMSO
Protocol: as §1

[7] = compound: C=C(C)C(=O)OCC(F)(F)C(F)(F)C(F)(F)F [2,2,3,3,4,4,4-Heptafluorobutyl methacrylate]; conditions: 2200 nM; in DMSO
Protocol: as §1

[8] = compound: C=CC(=O)OCC(F)(F)C(F)(F)C(F)(F)C(F)(F)COC(=O)C=C [1H,1H,6H,6H-Perfluorohexane-1,6-diol diacrylate]; conditions: 2200 nM; in DMSO
Protocol: as §1

[9] = compound: OCC(F)(F)C(F)(F)C(F)(F)C(F)(F)C(F)(F)C(F)(F)C(F)(F)C(F)(F)C(F)(F)C(F)(F)C(F)(F)F [11:1 Fluorotelomer alcohol]; conditions: in DMSO
Protocol: as §1

[10] = compound: O=C(O)C(F)(F)C(F)(F)OC(F)(F)F [Perfluoro-3-methoxypropanoic acid]; conditions: 2200 nM; in DMSO
Protocol: as §1

[11] = compound: O=C(O)C(F)(F)C(F)(F)C(F)(F)C(F)(F)C(F)(F)C(F)(F)C(F)(F)C(F)(F)C(F)(F)C(F)(F)F [Perfluoroundecanoic acid]; conditions: in DMSO
Protocol: as §1

[12] = compound: OCCC(F)(F)C(F)(F)C(F)(F)C(F)(F)C(F)(F)C(F)(F)C(F)(F)C(F)(F)F [8:2 Fluorotelomer alcohol]; conditions: 2200 nM; in DMSO
Protocol: as §1

[13] = compound: NC(=O)C(F)(F)C(F)(F)C(F)(F)C(F)(F)C(F)(F)C(F)(F)C(F)(F)F [Perfluorooctanamide]; conditions: 2200 nM; in DMSO
Protocol: as §1

[14] = compound: FC(F)(F)C(F)(F)C(F)(F)C(F)(F)C(F)(F)C(F)(F)C(F)(F)CCI [1-Iodo-1H,1H,2H,2H-perfluorononane]; conditions: in DMSO
Protocol: as §1

[15] = compound: O=C(O)C(F)(F)C(F)(F)F [Perfluoropropanoic acid]; conditions: 2200 nM; in DMSO
Protocol: as §1

[16] = compound: O=C(O)C(F)(F)OC(F)(F)C(F)(F)OC(F)(F)C(F)(F)C(F)(F)C(F)(F)F [Perfluoro-3,6-dioxadecanoic acid]; conditions: 2200 nM; in DMSO
Protocol: as §1

[17] = compound: FC(F)C(F)(F)COCC1CO1 [((2,2,3,3-Tetrafluoropropoxy)methyl)oxirane]; conditions: 2200 nM; in DMSO
Protocol: as §1

[18] = compound: O=C(O)C(F)(F)OC(F)(F)C(F)(F)OC(F)(F)C(=O)O [Perfluoro-3,6-dioxaoctane-1,8-dioic acid]; conditions: 2200 nM; in DMSO
Protocol: as §1

| Test System | level (log10) ([1]; 740 nM) | level (log10) ([1]; 2200 nM) | level (log10) ([1]; 6700 nM) | level (log10) ([1]; 20000 nM) | level (log10) [2] | level (log10) ([3]; 2200 nM) | level (log10) ([3]; 6700 nM) | level (log10) ([3]; 20000 nM) | level (log10) ([3]; 60000 nM) | level (log10) [4] | level (log10) [5] | level (log10) [6] | level (log10) [7] | level (log10) [8] | level (log10) ([9]; 370 nM) | level (log10) ([9]; 1100 nM) | level (log10) ([9]; 3300 nM) | level (log10) ([9]; 10000 nM) | level (log10) [10] | level (log10) ([11]; 740 nM) | level (log10) ([11]; 2200 nM) | level (log10) [12] | level (log10) [13] | level (log10) ([14]; 740 nM) | level (log10) ([14]; 2200 nM) | level (log10) ([14]; 6700 nM) | level (log10) ([14]; 20000 nM) | level (log10) [15] | level (log10) [16] | level (log10) [17] | level (log10) [18] |
| --- | --- | --- | --- | --- | --- | --- | --- | --- | --- | --- | --- | --- | --- | --- | --- | --- | --- | --- | --- | --- | --- | --- | --- | --- | --- | --- | --- | --- | --- | --- | --- |
| CASM3C:Proliferation | -0.112 ± 0.13 | -0.0155 ± 0.032 | -0.003 ± 0.027 | -0.045 ± 0.0042 | -0.001 ± 0.0085 | 0.0235 ± 0.022 | 0.0035 ± 0.019 | -0.009 ± 0.0085 | 0.009 ± 0.059 | -0.012 ± 0.016 | -0.03 ± 0.041 | -0.0115 ± 0.00071 | -0.003 ± 0.017 | 0.0385 ± 0.018 | 0.0025 ± 0.022 | 0.0145 ± 0.0078 | -0.0185 ± 0.005 | 0.0565 ± 0.0092 | -0.014 ± 0.018 | 0.006 ± 0.034 | 0.032 ± 0.025 | -0.0275 ± 0.032 | -0.0245 ± 0.012 | 0.006 ± 0.0071 | -0.0045 ± 0.012 | -0.001 | 0.0105 ± 0.04 | 0.0295 ± 0.043 | 0.0015 ± 0.0064 | -0.0055 ± 0.053 | -0.0025 ± 0.0021 |
| CASM3C:SRB | -0.001 ± 0.013 | -0.0015 ± 0.00071 | -0.0025 ± 0.0092 | 0.007 | 0.0005 ± 0.012 | 0.0045 ± 0.0078 | 0.006 ± 0.0042 | -0.011 ± 0.0042 | -0.003 ± 0.0028 | -0.006 ± 0.0014 | 0.0005 ± 0.023 | -0.004 ± 0.0085 | 0.01 ± 0.0042 | -0.0025 ± 0.0035 | 0.0065 ± 0.00071 | 0.0075 ± 0.005 | 0.0095 ± 0.0064 | 0.008 ± 0.0071 | 0.0205 ± 0.029 | 0.005 ± 0.0042 | 0.0005 ± 0.00071 | 0.0115 ± 0.005 | -0.003 ± 0.014 | 0.004 ± 0.0071 | 0.0065 ± 0.016 | -0.0025 ± 0.0021 | -0.0015 ± 0.0064 | 0.008 ± 0.0042 | -0.001 ± 0.0057 | 0.0075 ± 0.0035 | 0.0055 ± 0.022 |
| CASM3C:Serum Amyloid A | 0.019 ± 0.017 | -0.024 | -0.035 | 0.008 ± 0.024 | 0.0285 ± 0.066 | 0.0315 ± 0.06 | 0.0085 ± 0.005 | -0.023 ± 0.017 | 0.026 ± 0.045 | 0.007 ± 0.069 | -0.0105 ± 0.03 | -0.014 ± 0.0071 | 0.0105 ± 0.0078 | -0.0375 ± 0.018 | -0.018 ± 0.034 | -0.0025 ± 0.044 | -0.0045 ± 0.0078 | 0.0045 ± 0.016 | 0.03 ± 0.098 | 0.0065 ± 0.05 | 0.019 ± 0.0085 | -0.0025 ± 0.032 | -0.0075 ± 0.023 | 0.016 ± 0.034 | -0.0215 ± 0.011 | -0.007 ± 0.031 | 0.0135 ± 0.076 | -0.037 ± 0.068 | 0.0115 ± 0.0021 | -0.01 ± 0.011 | 0.0145 ± 0.086 |
| HDF3CGF:CCL2/MCP-1 | -0.005 ± 0.011 | -0.0235 ± 0.013 | -0.0205 ± 0.025 | -0.0335 ± 0.0035 | 0.037 ± 0.025 | -0.0125 ± 0.03 | -0.006 ± 0.018 | 0.006 ± 0.0085 | 0.017 ± 0.017 | -0.0095 ± 0.021 | -0.04 ± 0.078 | 0.0205 ± 0.033 | 0.006 ± 0.0057 | -0.05 ± 0.0014 | -0.0005 ± 0.035 | 0.0305 ± 0.033 | 0.0075 ± 0.0064 | 0.0095 ± 0.015 | -0.013 ± 0.0071 | 0.0085 ± 0.033 | -0.0195 ± 0.011 | -0.0135 ± 0.03 | -0.021 ± 0.011 | -0.0045 ± 0.018 | -0.0245 ± 0.015 | -0.034 ± 0.017 | -0.018 ± 0.016 | -0.0045 ± 0.032 | 0.0005 ± 0.022 | 0.0005 ± 0.005 | -0.015 ± 0.0014 |
| HDF3CGF:CD54/ICAM-1 | -0.006 ± 0.021 | -0.0075 ± 0.019 | -0.0025 ± 0.0078 | -0.0075 ± 0.0078 | 0.001 ± 0.021 | -0.0145 ± 0.0064 | -0.0105 ± 0.005 | -0.0055 ± 0.015 | -0.024 ± 0.016 | -0.0075 ± 0.013 | 0.0425 ± 0.039 | 0.0025 ± 0.019 | -0.01 ± 0.0071 | -0.0505 ± 0.0092 | -0.0055 ± 0.00071 | 0.001 ± 0.0071 | -0.0075 ± 0.021 | -0.012 ± 0.0014 | 0.0055 ± 0.005 | -0.018 ± 0.0042 | -0.016 ± 0.018 | 0.0315 ± 0.016 | -0.0005 ± 0.0064 | 0.0205 ± 0.015 | 0.001 ± 0.016 | -0.0105 ± 0.016 | 0.0095 ± 0.0035 | -0.0115 ± 0.015 | 0.001 ± 0.013 | 0.007 ± 0.0099 | -0.0025 ± 0.019 |
| HDF3CGF:CD106/VCAM-1 | -0.0065 ± 0.023 | -0.0125 ± 0.026 | -0.0165 ± 0.021 | -0.046 ± 0.041 | 0.102 ± 0.014 | -0.0695 ± 0.037 | -0.0265 ± 0.015 | -0.019 ± 0.02 | -0.025 ± 0.035 | -0.028 ± 0.0071 | -0.014 ± 0.0014 | 0.0005 ± 0.019 | -0.029 ± 0.054 | -0.329 ± 0.029 | -0.0455 ± 0.069 | -0.075 ± 0.011 | -0.144 ± 0.013 | -0.069 ± 0.075 | -0.015 ± 0.011 | -0.017 ± 0.017 | -0.018 ± 0.0099 | -0.045 ± 0.048 | -0.011 ± 0.02 | -0.0365 ± 0.0092 | -0.044 ± 0.011 | -0.0925 ± 0.013 | -0.115 ± 0.018 | -0.0175 ± 0.028 | -0.073 ± 0.061 | -0.0435 ± 0.019 | -0.0365 ± 0.0078 |
| HDF3CGF:CXCL8/IL-8 | 0 ± 0.017 | -0.0025 ± 0.0092 | -0.0055 ± 0.00071 | -0.001 | 0.0005 ± 0.0035 | -0.011 ± 0.02 | -0.008 ± 0.0042 | 0.004 ± 0.011 | 0.0065 ± 0.013 | 0.009 ± 0.0042 | -0.0065 ± 0.0021 | -0.004 ± 0.018 | 0.001 ± 0.0085 | -0.004 ± 0.0071 | 0 ± 0.0099 | -0.002 ± 0.0057 | -0.007 | -0.001 | -0.0005 ± 0.011 | 0.0025 ± 0.018 | -0.003 ± 0.0042 | -0.004 ± 0.021 | 0.0015 ± 0.0078 | 0.0165 ± 0.0092 | 0.0025 ± 0.005 | 0.002 ± 0.0014 | 0.0165 ± 0.019 | 0.003 ± 0.0042 | 0.0015 ± 0.0064 | -0.0035 ± 0.00071 | -0.005 ± 0.0085 |
